In the supplement of paper PMC10849652:
The other results are listed elsewhere or left out.

Amino acid sequences for entries named in this document (tags omitted). A change or cut given only in a name is not applied to a line headed by its entry.
UniProt Q8WW59: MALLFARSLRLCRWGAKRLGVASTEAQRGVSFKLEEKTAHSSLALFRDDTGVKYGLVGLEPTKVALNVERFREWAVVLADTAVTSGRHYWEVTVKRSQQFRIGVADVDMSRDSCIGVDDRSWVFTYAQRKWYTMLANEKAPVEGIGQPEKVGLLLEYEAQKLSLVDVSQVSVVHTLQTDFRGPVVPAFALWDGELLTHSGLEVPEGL
UniProt Q07955, whole entry, looked up: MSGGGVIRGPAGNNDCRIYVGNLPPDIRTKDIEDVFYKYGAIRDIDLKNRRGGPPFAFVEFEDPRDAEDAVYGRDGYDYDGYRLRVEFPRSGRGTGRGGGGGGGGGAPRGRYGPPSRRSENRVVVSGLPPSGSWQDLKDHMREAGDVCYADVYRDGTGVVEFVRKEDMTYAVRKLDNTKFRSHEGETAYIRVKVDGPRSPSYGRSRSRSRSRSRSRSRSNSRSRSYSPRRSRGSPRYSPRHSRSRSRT
UniProt Q14534: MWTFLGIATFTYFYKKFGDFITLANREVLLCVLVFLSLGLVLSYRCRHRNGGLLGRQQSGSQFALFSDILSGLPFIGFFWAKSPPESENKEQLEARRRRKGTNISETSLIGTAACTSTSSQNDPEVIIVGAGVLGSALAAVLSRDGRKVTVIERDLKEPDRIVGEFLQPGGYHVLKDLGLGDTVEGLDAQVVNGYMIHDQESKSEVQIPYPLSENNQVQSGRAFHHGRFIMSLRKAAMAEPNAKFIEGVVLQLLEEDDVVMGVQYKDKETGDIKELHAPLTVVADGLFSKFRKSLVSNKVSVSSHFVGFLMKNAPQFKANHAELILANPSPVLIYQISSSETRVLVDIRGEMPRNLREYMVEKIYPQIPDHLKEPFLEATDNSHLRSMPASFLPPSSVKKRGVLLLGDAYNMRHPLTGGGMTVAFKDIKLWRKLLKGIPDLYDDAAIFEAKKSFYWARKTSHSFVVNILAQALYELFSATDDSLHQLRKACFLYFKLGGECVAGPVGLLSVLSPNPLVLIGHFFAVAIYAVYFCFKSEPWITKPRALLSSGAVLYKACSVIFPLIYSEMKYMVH
UniProt P09132: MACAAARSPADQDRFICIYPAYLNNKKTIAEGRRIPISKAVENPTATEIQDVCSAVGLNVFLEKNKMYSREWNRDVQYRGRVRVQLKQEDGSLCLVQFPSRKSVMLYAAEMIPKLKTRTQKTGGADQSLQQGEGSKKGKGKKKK
UniProt Q5M775: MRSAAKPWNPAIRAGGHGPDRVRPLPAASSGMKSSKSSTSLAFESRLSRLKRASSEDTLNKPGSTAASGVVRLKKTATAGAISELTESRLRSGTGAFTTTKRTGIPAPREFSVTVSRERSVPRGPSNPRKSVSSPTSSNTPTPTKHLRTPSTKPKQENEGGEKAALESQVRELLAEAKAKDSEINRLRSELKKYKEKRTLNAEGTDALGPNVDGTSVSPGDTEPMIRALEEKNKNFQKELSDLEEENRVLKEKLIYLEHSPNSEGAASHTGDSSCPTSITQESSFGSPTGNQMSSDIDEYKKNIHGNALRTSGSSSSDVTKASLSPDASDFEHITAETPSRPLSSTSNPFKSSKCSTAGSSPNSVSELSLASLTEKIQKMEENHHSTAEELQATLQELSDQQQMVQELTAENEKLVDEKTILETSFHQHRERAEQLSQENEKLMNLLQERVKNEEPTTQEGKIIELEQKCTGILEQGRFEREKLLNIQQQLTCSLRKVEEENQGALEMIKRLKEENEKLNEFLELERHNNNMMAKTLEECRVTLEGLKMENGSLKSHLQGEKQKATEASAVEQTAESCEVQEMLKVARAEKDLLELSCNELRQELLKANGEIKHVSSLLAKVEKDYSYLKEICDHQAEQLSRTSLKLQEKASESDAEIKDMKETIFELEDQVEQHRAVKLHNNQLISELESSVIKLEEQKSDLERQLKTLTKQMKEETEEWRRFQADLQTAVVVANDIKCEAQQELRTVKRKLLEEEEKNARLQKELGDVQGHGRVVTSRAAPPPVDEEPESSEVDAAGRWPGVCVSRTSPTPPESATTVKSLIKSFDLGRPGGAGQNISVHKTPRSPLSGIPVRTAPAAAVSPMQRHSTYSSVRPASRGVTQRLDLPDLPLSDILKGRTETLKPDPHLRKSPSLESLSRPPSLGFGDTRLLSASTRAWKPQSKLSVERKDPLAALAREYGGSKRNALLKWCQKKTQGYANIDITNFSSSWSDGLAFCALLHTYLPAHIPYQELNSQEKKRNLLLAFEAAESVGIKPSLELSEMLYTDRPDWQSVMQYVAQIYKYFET
UniProt Q9HBM1: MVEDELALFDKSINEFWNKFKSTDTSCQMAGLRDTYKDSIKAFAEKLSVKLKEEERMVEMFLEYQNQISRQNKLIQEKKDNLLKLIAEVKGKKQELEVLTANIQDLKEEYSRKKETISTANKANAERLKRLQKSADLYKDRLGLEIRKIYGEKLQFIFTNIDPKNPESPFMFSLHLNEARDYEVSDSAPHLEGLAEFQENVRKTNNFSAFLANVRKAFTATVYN
UniProt Q8N5C6: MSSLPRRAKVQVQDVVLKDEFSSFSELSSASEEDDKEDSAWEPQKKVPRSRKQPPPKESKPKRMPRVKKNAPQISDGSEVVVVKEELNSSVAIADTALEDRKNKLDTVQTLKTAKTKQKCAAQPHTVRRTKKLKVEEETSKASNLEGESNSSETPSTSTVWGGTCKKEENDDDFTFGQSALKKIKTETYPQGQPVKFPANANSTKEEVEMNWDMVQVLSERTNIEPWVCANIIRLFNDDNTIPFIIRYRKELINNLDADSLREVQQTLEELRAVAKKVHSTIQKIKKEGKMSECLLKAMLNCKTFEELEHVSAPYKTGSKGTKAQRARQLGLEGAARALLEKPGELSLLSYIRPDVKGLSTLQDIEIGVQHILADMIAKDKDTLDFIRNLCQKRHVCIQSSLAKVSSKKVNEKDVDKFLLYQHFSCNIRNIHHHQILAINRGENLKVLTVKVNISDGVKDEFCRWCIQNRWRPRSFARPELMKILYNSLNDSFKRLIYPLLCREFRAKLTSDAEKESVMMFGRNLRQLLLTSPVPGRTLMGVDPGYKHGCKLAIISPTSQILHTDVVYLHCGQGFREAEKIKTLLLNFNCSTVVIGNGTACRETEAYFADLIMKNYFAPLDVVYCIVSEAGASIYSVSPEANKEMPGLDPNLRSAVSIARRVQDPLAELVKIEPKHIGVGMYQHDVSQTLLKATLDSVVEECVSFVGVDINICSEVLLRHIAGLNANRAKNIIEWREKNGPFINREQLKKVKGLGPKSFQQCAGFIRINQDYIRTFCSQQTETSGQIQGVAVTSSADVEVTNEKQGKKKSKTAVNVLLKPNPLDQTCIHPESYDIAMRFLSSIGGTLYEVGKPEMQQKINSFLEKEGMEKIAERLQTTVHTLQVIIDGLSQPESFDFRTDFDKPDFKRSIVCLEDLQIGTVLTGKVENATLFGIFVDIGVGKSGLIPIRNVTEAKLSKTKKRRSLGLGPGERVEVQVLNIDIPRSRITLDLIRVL
UniProt Q8TCT8: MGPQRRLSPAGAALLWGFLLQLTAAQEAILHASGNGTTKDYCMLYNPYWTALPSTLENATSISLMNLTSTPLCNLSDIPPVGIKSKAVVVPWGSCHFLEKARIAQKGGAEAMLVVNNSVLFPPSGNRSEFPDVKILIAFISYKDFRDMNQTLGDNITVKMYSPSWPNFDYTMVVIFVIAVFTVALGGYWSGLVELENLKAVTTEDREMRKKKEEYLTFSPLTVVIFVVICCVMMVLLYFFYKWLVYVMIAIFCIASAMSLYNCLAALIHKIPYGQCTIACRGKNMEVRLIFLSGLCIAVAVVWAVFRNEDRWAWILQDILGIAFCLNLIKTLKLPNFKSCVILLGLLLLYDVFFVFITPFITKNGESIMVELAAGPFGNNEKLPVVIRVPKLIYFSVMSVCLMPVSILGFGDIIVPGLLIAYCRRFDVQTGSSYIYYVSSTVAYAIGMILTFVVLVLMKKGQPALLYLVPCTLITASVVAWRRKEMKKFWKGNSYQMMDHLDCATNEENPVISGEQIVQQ
UniProt P16150: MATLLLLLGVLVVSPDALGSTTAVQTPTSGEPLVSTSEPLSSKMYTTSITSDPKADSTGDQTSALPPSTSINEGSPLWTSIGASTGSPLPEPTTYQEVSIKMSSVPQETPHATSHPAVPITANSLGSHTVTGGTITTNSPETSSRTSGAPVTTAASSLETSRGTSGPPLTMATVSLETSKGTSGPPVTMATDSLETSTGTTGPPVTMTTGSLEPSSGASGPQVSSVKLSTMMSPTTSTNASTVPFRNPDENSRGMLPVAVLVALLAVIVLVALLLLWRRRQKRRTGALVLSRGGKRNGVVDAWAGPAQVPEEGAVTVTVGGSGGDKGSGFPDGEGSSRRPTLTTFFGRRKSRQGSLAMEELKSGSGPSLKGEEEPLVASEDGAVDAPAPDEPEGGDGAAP
UniProt Q92502: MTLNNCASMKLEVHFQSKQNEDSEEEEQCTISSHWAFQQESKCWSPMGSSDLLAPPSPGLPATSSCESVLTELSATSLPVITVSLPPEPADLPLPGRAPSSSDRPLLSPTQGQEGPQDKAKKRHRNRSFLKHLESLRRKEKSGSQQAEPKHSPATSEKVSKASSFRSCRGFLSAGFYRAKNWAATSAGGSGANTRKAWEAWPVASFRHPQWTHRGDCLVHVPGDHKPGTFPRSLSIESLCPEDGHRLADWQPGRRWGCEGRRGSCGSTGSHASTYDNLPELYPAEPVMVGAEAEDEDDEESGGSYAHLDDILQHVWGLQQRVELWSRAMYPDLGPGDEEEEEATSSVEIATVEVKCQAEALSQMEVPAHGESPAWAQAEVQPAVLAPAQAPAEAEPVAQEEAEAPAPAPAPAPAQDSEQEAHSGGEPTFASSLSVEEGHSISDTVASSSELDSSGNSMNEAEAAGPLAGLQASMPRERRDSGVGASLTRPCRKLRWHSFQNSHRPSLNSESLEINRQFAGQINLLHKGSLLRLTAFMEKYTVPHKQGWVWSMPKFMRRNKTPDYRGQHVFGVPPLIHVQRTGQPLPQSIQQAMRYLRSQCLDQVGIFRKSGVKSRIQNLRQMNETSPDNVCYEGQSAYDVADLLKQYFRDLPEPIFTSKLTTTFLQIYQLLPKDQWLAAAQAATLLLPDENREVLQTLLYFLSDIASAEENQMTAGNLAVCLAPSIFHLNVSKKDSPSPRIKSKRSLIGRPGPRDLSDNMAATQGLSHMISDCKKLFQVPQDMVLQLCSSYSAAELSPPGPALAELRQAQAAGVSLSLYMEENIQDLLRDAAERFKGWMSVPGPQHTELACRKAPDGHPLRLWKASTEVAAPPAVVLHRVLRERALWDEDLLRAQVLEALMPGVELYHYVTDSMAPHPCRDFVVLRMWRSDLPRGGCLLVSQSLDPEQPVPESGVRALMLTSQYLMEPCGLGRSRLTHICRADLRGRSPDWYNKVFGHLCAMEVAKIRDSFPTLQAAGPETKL
UniProt Q8N0Z3: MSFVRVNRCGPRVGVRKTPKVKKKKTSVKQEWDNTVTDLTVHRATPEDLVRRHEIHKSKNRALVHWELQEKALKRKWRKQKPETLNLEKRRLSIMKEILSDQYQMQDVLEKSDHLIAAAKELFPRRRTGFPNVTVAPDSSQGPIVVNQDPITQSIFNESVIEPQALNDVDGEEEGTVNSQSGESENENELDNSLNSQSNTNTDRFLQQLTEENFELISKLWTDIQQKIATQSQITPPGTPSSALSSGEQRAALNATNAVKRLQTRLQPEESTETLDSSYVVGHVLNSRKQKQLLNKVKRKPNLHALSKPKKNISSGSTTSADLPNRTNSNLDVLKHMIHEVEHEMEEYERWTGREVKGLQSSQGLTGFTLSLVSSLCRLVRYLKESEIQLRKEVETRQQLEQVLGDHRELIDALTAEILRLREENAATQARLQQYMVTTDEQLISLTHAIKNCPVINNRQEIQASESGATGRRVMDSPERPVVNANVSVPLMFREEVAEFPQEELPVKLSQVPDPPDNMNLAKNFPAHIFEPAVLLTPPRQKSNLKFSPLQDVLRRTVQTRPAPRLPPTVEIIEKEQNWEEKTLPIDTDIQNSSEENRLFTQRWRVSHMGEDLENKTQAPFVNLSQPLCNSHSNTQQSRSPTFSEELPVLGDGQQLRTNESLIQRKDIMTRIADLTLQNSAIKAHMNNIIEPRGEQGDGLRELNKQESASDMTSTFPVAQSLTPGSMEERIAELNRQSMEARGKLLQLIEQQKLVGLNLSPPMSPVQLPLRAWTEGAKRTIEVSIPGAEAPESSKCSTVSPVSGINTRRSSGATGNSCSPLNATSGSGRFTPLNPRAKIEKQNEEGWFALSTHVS

How the values were obtained:
Experiment in all cases: log2 fold change, soluble protein after heating vs DMSO (PISA); higher = thermal stabilisation; K562 lysate, 10 uM; active = over 0.2 and 3.5 SD of the protein, either way, in both replicates (recomputed)
[1] = compound: C1=CC=C(C=C1)[C@H](COC2=CC3=C(C=C2)NC(=O)N3)NC(=O)C4=CC=CN(C4=O)CC5=CC(=C(C=C5)F)F
Summary of the method: (§1)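 Values give the log-two fold change in thermal stability against solvent controls, from duplicates. Crude K562 extract at 1 mg/mL protein, made by dounce homogenisation in PBS pH 7.4 with 1 mM MgCl2, was treated with 10 μM compound for 30 min. After 3 min heating across 48°C-58°C, aliquots were pooled, adjusted to 0.5% NP-40 at 4°C and centrifuged at 21,000xg for 90 min. The supernatant was measured by TMTpro 16plex LC-MS/MS with channel sums equalised.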

[2] = compound: CC1=C(SC2=C1C(=N[C@H](C3=NN=C(N32)C)CC(=O)N)C4=CC=C(C=C4)Cl)C
Summary of the method: as §1

[3] = compound: CC1=C2C(=CC=C1)N=C(N(C2=O)C3=CC=CC=C3C)CN4C=NC5=C(N=CN=C54)N
Summary of the method: as §1

[4] = compound: Cc1sc2c(c1C)C(c1ccc(Cl)cc1)=N[C@@H](CC(=O)OC(C)(C)C)c1nnc(C)n1-2
Summary of the method: as §1

[5] = compound: c1ccc([C@@H]2C[C@H]2NC2CCNCC2)cc1
Summary of the method: as §1

Measured: log2 fold change

SPRYD4 (UniProt Q8WW59)
inactive: [1] -0.027 | [2] 0.001 | [3] 0.022 | [4] 0.006 | [5] -0.03

SRSF1 (UniProt Q07955)
inactive: [1] 0.01 | [2] 0.021 | [3] 0.006 | [4] 0.015 | [5] 0.049

SQLE (UniProt Q14534)
inactive: [1] 0.044 | [2] 0.054 | [3] -0.099 | [4] 0.012 | [5] 0.031

SRP19 (UniProt P09132)
inactive: [1] -0.081 | [2] -0.035 | [3] 0.004 | [4] 0.05 | [5] -0.022

SPECC1 (UniProt Q5M775)
inactive: [1] 0.006 | [2] -0.041 | [3] 0.142 | [4] 0.01 | [5] 0.004

SPC25 (UniProt Q9HBM1)
inactive: [1] 0.055 | [2] 0.044 | [3] 0.029 | [4] 0.022 | [5] 0.039

SSB (UniProt E7ERC4)
inactive: [1] -0.137 | [2] 0.12 | [3] 0.186 | [4] -0.105 | [5] 0.444

SRBD1 (UniProt Q8N5C6)
inactive: [1] 0.038 | [2] 0.001 | [3] -0.114 | [4] 0.027 | [5] -0.043

SPATA33 isoform 2 (UniProt Q96N06)
inactive: [1] -0.025 | [2] 0.168 | [3] -0.133 | [4] -0.053 | [5] -0.167

SPPL2A (UniProt Q8TCT8)
inactive: [1] -0.148 | [2] 0.118 | [3] 0.087 | [5] 0.098

SPN (UniProt P16150)
inactive: [1] 0.041 | [2] -0.02 | [3] -0.014 | [4] -0.04 | [5] -0.034

Random excerpt: 2 entries already listed.
SPN (UniProt P16150)
inactive: [1] 0.041 | [2] -0.02 | [3] -0.014 | [4] -0.04 | [5] -0.034

SPATA33 isoform 2 (UniProt Q96N06)
inactive: [1] -0.025 | [2] 0.168 | [3] -0.133 | [4] -0.053 | [5] -0.167

The listing continues.

STARD8 isoform 2 (UniProt Q92502)
inactive: [1] 0.05 | [2] 0 | [4] 0.022

SPICE1 (UniProt Q8N0Z3)
inactive: [3] 0.21
